Data published in article doi:10.1101/2024.05.21.594841.
Like-named read-outs stand apart in the source and are kept apart here. No constants are given. Whether binding was seen depends on the method and setting. Binding seen in cells or lysates may run through a third protein. Some binding calls cover weakened binding; strength is not graded here. Values belong to the binder of their own block, whether it stands above or below them.

By UniProt entry, the sequences of proteins in these tests, tags left out. Residues count along the entry.
UniProt Q03195: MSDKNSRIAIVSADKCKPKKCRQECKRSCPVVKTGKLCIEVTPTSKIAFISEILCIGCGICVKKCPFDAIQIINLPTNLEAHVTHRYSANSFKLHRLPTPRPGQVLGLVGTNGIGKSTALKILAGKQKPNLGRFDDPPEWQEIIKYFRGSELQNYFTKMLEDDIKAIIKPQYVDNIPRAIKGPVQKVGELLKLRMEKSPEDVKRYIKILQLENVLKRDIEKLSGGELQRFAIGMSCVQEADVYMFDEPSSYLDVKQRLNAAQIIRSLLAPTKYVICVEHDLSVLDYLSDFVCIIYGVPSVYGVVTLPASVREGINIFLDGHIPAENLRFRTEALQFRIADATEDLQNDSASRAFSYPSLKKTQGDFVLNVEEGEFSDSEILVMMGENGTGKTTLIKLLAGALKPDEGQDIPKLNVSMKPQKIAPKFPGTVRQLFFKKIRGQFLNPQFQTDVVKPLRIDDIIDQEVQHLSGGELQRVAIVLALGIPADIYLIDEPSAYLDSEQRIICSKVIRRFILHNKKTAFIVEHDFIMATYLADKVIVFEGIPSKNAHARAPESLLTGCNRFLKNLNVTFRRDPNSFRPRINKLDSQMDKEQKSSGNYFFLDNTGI
UniProt Q08199, residues 20-421: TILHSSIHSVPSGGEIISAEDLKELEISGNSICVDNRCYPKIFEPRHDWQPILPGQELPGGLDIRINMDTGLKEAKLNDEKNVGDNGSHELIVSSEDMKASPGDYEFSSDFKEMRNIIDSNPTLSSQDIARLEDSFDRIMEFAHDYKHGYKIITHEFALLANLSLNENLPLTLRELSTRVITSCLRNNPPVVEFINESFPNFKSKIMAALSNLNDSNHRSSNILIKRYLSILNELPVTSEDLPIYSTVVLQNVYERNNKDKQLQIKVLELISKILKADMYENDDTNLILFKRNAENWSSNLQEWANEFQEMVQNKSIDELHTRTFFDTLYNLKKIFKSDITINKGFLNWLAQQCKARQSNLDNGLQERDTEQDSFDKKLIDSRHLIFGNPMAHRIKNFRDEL

How the values were obtained:
Experiment in all cases: split reporter
Rli1p (yeast) [1] = target: Rli1p (yeast) (UniProt Q03195)
Rli1p (yeast) [2] = target: Rli1p (yeast) (UniProt Q03195); remark: listed apart in the source
Sil1p (S. cerevisiae) = Sil1p (S. cerevisiae) (UniProt Q08199)

- binding (Rli1p (yeast) [1]): no binding
- binding (Rli1p (yeast) [2]): no binding
B1: Yae1p (protein, UniProt P47118 1-141)
chain: MSNTWDDVWASDSDVETERSPDLVKLRENHSKRGYLDGIVSSKEEKLQEGFNDGFPTGAKLGKQVGIIMGILLGLRTRFGDEDEDLSKAYIDAQKELRINKVLSKSIFDPNFDLQEKHPLITKWTDIANTYCEKYHVPSIQ

- binding (Sil1p (S. cerevisiae)): binds
B2: Scj1p (protein, UniProt P25303 22-377)
chain: QDYYAILEIDKDATEKEIKSAYRQLSKKYHPDKNAGSEEAHQKFIEVGEAYDVLSDPEKKKIYDQFGADAVKNGGGGGGPGGPGAGGFHDPFDIFERMFQGGHGGPGGGFGQRQRQRGPMIKVQEKLSLKQFYSGSSIEFTLNLNDECDACHGSGSADGKLAQCPDCQGRGVIIQVLRMGIMTQQIQQMCGRCGGTGQIIKNECKTCHGKKVTKKNKFFHVDVPPGAPRNYMDTRVGEAEKGPDFDAGDLVIEFKEKDTENMGYRRRGDNLYRTEVLSAAEALYGGWQRTIEFLDENKPVKLSRPAHVVVSNGEVEVVKGFGMPKGSKGYGDLYIDYVVVMPKTFKSGQNMLKDEL
